Measured values: paper PMC11968394, “The effect of deuterated PLK1 inhibitor on its safety and efficacy in vivo” (Frontiers in Oncology, 2025)

Test: Caco-2 permeability assay
Format: in vitro ADME
Settings: human
Procedure: Caco-2 cells were cultured in 10% FBS DMEM for 14-21 days before assays. […] HBSS was added to the opposite chamber. After 2 hours incubation at 37°C, samples were analyzed by LC-MS/MS. Fluorescein leakage was tested by adding 100 μM fluorescein to the upper chamber and measuring fluorescence after 30 minutes.

efflux ratio at 2 h, 5 μM: 27.8
SMILES: C[C@H]1O[C@@H](O[C@H]2[C@@H](O)C[C@H](O[C@H]3[C@@H](O)C[C@H](O[C@H]4CC[C@@]5(C)[C@H](CC[C@@H]6[C@@H]5C[C@@H](O)[C@]5(C)[C@@H](C7=CC(=O)OC7)CC[C@]65O)C4)O[C@@H]3C)O[C@@H]2C)C[C@H](O)[C@@H]1O [Digoxin]
